According to article doi:10.1101/2025.11.13.688167:
Results are given in words; binding and its absence hold for the method and conditions named. For some assays here: In cells and extracts the contact can be indirect. Some entries that bind do so weakly or less than the wild type.

Sequences of proteins named here, by UniProt entry; tags and fusion partners are left off. Residues count along the entry.
UniProt Q8ZPP9, residues 22-79: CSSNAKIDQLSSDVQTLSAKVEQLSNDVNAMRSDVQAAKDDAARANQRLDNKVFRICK

Legend:
[1] = biological target: T1, Lpp (Braun's lipoprotein) from Escherichia coli (E. coli (endogenous in DH300)) (UniProt P69776); experiment: cross-linking
T1 sequence (chain, tri-acylated N-terminal cysteine): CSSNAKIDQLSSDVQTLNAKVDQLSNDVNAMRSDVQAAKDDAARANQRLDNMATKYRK

[2] = biological target: LppB from Salmonella enterica serovar Typhimurium LT2 (S. Typhimurium LT2) (UniProt Q8ZPP9); experiment: cross-linking
[3] = biological target: LppB from Salmonella enterica serovar Typhimurium LT2 (S. Typhimurium LT2) (UniProt Q8ZPP9); experiment: non-reducing SDS-PAGE and Western blot
[4] = biological target: LppB from Salmonella enterica serovar Typhimurium LT2 (S. Typhimurium LT2) (UniProt Q8ZPP9); experiment: reducing SDS-PAGE and Western blot

LppB from Salmonella enterica serovar Typhimurium LT2 (from UniProt Q8ZPP9 22-79)
binding [1]: binds | binding [2]: binds | binding [3]: binds | binding [4]: no binding (condition: with 30 mM DTT)

B1: Lpp (Braun's lipoprotein) from Escherichia coli (protein, UniProt P69776 21-78)
chain: CSSNAKIDQLSSDVQTLNAKVDQLSNDVNAMRSDVQAAKDDAARANQRLDNMATKYRK
modifications: tri-acylated N-terminal cysteine
binding [1]: binds
